No constants are given. Whether binding was seen depends on the method and setting. For some assays here: Binding seen in cells or lysates may run through a third protein. Some entries that bind do so weakly or less than the wild type.
Tests used:
GST-ERα (1-595) [1] = target: GST-ERα (1-595) (UniProt P03372); assay: GST pull-down, 35S-labelled in vitro translated DBC-1 fragments
GST-ERα (1-595) [2] = target: GST-ERα (1-595) (UniProt P03372); assay: GST pull-down, in vitro translated DBC-1 fragments
[3] = target: VP16-ERα chimera (full-length ERα fused to the Herpes simplex virus VP16 transactivation domain) (Herpes simplex virus) (UniProt P03372); assay: mammalian two-hybrid (luciferase reporter) in HeLa cells
[4] = target: VP16-ERα chimera (full-length ERα fused to the Herpes simplex virus VP16 transactivation domain) (Herpes simplex virus) (UniProt P03372); assay: mammalian two-hybrid (luciferase reporter) in HeLa cells; interaction seen without E2
[5] = target: VP16-ERα chimera (full-length ERα fused to the Herpes simplex virus VP16 transactivation domain) (Herpes simplex virus) (UniProt P03372); assay: mammalian two-hybrid (luciferase reporter) in HeLa cells, hormone-free

Chains of the proteins cited; added tags and fusions are not shown. Residues count along the entry.
UniProt P03372: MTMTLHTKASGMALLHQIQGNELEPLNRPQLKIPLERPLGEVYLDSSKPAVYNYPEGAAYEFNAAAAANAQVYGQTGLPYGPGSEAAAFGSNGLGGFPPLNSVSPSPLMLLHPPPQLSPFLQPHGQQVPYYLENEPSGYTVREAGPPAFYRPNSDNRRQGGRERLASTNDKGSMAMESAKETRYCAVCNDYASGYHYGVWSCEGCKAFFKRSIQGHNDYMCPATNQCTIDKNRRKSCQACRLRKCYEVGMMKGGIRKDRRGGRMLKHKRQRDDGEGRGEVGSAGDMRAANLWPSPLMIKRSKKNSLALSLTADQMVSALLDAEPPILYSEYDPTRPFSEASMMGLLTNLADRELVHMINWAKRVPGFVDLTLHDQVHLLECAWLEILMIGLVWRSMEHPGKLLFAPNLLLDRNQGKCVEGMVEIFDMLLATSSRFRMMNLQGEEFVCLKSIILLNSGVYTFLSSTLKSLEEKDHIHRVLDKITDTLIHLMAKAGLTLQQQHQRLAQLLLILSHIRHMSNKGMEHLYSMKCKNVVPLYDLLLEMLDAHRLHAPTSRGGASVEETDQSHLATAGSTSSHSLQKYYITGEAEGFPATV
UniProt Q8N163, residues 1-150: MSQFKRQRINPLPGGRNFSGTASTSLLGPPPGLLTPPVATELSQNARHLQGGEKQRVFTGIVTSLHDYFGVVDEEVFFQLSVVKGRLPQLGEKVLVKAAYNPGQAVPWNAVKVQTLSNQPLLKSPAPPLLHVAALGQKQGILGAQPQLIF

## DBC-1 (1-150), in vitro translated fragment (from UniProt Q8N163 1-150)
GST-ERα (1-595) [1]
  binding: binds
GST-ERα (1-595) [2]
  binding: binds

## GAL4-DBC-1 chimera (full-length DBC-1 fused to the yeast GAL4 DNA-binding domain) (from UniProt P04386 1-147; Q8N163 1-923)
[3]
  binding: binds
[4]
  binding: binds

## GAL4-DBC-1-N terminal chimera (amino acids 1-478) (from UniProt P04386 1-147; Q8N163 1-478)
[5]
  binding: binds
